In BigSolDB 2.1:

Nc1ccc(S(N)(=O)=O)cc1
solubility (mole fraction)
Conditions | 298.15 K | 303.15 K | 308.15 K | 313.15 K
in n-octanol | 0.000508 | 0.000601 | 0.00075 | 0.000882
in water | 0.000776 | 0.00103 | 0.00139 | 0.00175
